According to publication PMC4858740:
No constants are given. Whether binding was seen depends on the method and setting. Binding seen in cells or lysates may run through a third protein. Some results given as binding are weak or reduced against the parent protein; the word gives no strength.

Chains of the proteins cited; added tags and fusions are not shown. Residues count along the entry.
UniProt Q96DU3, residues 22-332: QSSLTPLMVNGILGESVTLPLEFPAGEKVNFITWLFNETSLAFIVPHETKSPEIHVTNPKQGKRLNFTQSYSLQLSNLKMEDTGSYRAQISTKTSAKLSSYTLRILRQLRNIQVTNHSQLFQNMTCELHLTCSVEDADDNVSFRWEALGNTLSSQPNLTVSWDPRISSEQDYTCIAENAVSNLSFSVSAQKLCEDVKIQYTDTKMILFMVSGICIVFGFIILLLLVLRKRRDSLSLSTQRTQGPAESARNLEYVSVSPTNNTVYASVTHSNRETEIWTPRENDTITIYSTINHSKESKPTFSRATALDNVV
UniProt P29350: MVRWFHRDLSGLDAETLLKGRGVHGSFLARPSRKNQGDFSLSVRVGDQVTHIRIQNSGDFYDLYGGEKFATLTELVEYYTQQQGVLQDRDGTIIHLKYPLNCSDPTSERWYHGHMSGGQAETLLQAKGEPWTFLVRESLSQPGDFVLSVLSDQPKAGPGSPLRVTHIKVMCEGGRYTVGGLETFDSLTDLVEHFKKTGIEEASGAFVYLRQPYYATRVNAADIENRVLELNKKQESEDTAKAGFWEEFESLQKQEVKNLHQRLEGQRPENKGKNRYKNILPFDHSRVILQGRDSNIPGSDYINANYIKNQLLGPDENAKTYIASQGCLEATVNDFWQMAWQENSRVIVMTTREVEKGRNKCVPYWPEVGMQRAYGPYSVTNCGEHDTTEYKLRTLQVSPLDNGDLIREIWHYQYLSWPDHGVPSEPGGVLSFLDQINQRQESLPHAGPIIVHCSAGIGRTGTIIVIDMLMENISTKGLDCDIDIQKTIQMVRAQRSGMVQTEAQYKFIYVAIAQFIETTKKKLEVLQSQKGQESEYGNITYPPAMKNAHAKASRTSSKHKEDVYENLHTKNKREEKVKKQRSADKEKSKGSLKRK

What was measured:
[1] = molecular target: T1, SLAMF5, endogenous in HEL cells (human (endogenous in HEL)) (UniProt Q9UIB8); experiment: co-IP
T1 sequence: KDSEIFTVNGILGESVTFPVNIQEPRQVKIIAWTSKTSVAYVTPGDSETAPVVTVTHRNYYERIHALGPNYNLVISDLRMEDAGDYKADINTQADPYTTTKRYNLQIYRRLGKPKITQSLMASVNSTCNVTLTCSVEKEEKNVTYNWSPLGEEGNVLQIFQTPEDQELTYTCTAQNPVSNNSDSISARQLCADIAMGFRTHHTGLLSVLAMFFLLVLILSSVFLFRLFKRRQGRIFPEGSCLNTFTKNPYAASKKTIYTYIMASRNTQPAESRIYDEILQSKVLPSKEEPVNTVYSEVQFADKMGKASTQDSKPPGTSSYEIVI

[2] = molecular target: SLAMF6, endogenous in HEL cells (human (endogenous in HEL)) (UniProt Q96DU3); experiment: co-IP

## SHP-1 (from UniProt P29350 1-595) (enzyme)
[1]
  binding: binds
[2]
  binding: binds
